{"sequences": {"note": "Chains of the proteins cited; added tags and fusions are not shown. Residues count along the entry.", "UniProt P01375, residues 77-233": "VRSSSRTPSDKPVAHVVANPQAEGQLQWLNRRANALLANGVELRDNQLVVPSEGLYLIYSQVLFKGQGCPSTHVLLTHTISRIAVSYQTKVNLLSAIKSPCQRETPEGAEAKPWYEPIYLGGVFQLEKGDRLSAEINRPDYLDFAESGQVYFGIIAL"}, "source": "patent US20140086904A1", "about": "(CHENGDU KANGHONG BIOTECHNOLOGIES, published 2014)", "binders": {"B1": {"name": "KS-2E (Fab, V domains shown)", "VH": "QVQLVESGGGLVKPGGSLRLSCAASGFTFSNAWMNWVRQAPGKGLEWVAEIRSKSINSATHYAESVKGRFTISRDNSKKTLYLEMNSLRVEDTAVYYCSRNYYGSTYQYWGQGTTLTVSS", "VL": "EIVLTQSPDFQSVSPKETVTITCRASQTVHMSLHWYQQKPNQSPRLLIKYGSQSFSGVPSRFSGSGSGTDFTLTINSLEPEDAATYYCQQSHKWPFTFGSGTNVDIKR", "notes": "Humanized Fab (heavy chain Fd fragment and light chain), expressed in E. coli periplasm"}}, "key": {"[1]": {"biological_target": "human tumor necrosis factor-α (R & D Co., Catalog Number: 210-TA-050) (human) (UniProt P01375)", "assay": "ELISA, plate coated with human TNF-α (100 ng per well), 2-fold dilutions of Fab from 40 nM, HRP goat anti-human C-kappa, OD450"}, "[2]": {"biological_target": "human tumor necrosis factor-α (R & D Co., Catalog Number: 210-TA-050) (human) (UniProt P01375)", "assay": "ELISA on coated human TNF-α"}}, "note": "These are yes or no findings as the source states them, for the method shown. Some entries that bind do so weakly or less than the wild type.", "data": [{"binder": "B1", "values": [{"measurement": "binding", "setting": "[1]", "result": "binds"}, {"measurement": "binding", "setting": "[2]", "result": "binds"}]}]}
